Values of other authors, collected in patent US11345650B1, “Methods and systems for crystallizing and isolating individual cannabinoids” (MYKU Biosciences LLC, priority 2021, dated 2022).
The name of at least one read-out is uncertain.

Conditions: cited from earlier work

C=C(C)[C@@H]1CCC(C)=C[C@H]1c1c(O)cc(CCCCC)cc1O [CBD, Cannabidiol]
Hildebrand Solubility Parameter: 24.34 MPa^1/2
